The list shows a part of the results. Further columns of the screen follow, without active or inactive calls. The list favours compounds with an active or inconclusive main result. The note in brackets gives the kind of curve behind each potency; many fits are weak.
Assay: qHTS Assay to Find Inhibitors of Chronic Active B-Cell Receptor Signaling
Settings: ABC-DLBCL IkBa-CBG/CBR reporter, luminescence ratio (green luciferase fused to IkBa over red control in TMD8 lymphoma cells), 4 h
Summary of the method: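 TMD8 ABC-DLBCL cells carrying doxycycline-inducible green luciferase fused to IkappaBalpha plus unfused red luciferase were exposed to compounds (up to 46 uM) for 4 hrs at 37C. Activity came from the overlap-corrected green/red luminescence ratio.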

[1] = measured here: CBR red luminescence, cell number
[2] = measured here: IkBa-CBG green luminescence

Row | SMILES | AC50 [1] | AC50 [2]
1 | CN(C)S(=O)(=O)Oc1cccc(C(=O)Nc2ccc(Cl)cc2)c1 | 15.8 µM [falling, partial curve, poor fit] | –
2 | Cc1cc(C)n2nc(-c3cnn(C)c3C(F)(F)F)c(Cl)c2n1 | 35.5 µM [rising, single point] | –
3 | CCOC(=O)Cc1csc(NC(=O)COc2ccc3ccccc3c2)n1 | 1.26 µM [falling, full curve] | –
4 | Cc1cc(C)c(NC(=O)CCc2c(C)noc2C)c(C)c1 | 6.51 µM [rising, single point] | –
5 | N#CCC(=O)Nc1ccc(C(=O)OCC(=O)Nc2ccccc2Sc2ccccc2)cc1 | 28.2 µM [falling, single point] | –
6 | Fc1ccc(-c2cnn3c(-c4cccs4)ccnc23)cc1 | 3.16 µM [falling, full curve, poor fit] | –
7 | CNC(=O)Nc1cccc(C(F)(F)F)c1 | 20.6 µM [rising, partial curve, poor fit] | –
8 | COCCN(Cc1cc2ccc(C)cc2[nH]c1=O)S(=O)(=O)c1ccccc1 | 5.62 µM [falling, partial curve] | –
9 | CC1CC2(CCCC2)N(C(=O)N(C)C)c2ccc(F)cc21 (centres undefined) | 35.5 µM [rising, partial curve, poor fit] | –
10 | O=C(NNC(=S)Nc1ccccc1Cl)C1CC1 | 0.013 µM [rising, full curve, poor fit] | –
11 | CCCc1nnc(NC(=O)CS(=O)(=O)c2ccccc2)s1 | 17.8 µM [falling, partial curve, poor fit] | –
12 | COc1cccc(C(=O)NC(=S)Nc2ccc(Cl)cc2C(=O)O)c1 | 5.01 µM [falling, full curve, poor fit] | –
13 | Cc1ccc(SCc2cn3cc(Cl)ccc3n2)cc1 | – | 14.1 µM [rising, partial curve, poor fit]
14 | Cc1ccc(S(=O)(=O)NCCCCCC(=O)Nc2nccs2)cc1 | 12.6 µM [falling, partial curve] | –
15 | O=C(COc1ccc2c(-c3ccccc3)cc(=O)oc2c1)NCCCn1ccnc1 | 25.1 µM [rising, single point] | –
16 | COc1ccc(/C=C2\SC(=N)N(c3nccs3)C2=O)cc1OC | 20.6 µM [rising, partial curve] | 18.4 µM [falling, single point]
17 | Cc1ccc(C(=O)CCC2CCCC2=O)cc1 (centres undefined) | 0.461 µM [rising, full curve, poor fit] | –
18 | COc1cccc(C(C(=O)NC(C)(C)C)N(CCC(C)C)C(=O)CCC(=O)Nc2cc(C)on2)c1OC (centres undefined) | 6.31 µM [rising, single point] | –
19 | Cc1ccc(CN(C)C(=O)C2CCCN2C(=O)c2cccs2)o1 (centres undefined) | 35.5 µM [rising, single point] | –
20 | S=C(Nc1ccccc1Cl)N(Cc1ccccc1)Cc1ccccn1 | – | 35.5 µM [falling, partial curve, poor fit]
21 | CCC(C)(C)c1ccc(Oc2cccc(C(=O)O)c2)cc1 | 6.31 µM [falling, single point] | –

Quoted at random: 2 records from the list, in no set order.
Row | SMILES | AC50 [1] | AC50 [2]
4 | Cc1cc(C)c(NC(=O)CCc2c(C)noc2C)c(C)c1 | 6.51 µM [rising, single point] | –
1 | CN(C)S(=O)(=O)Oc1cccc(C(=O)Nc2ccc(Cl)cc2)c1 | 15.8 µM [falling, partial curve, poor fit] | –

Next part.

Row | SMILES | AC50 [1] | AC50 [2]
22 | CC(=O)Oc1ccc(C(=O)Nc2cccc(C(=O)c3cccc(NC(=O)c4ccc(OC(C)=O)cc4)c3)c2)cc1 | 5.8 µM [falling, full curve] | –
23 | COc1ccc(C(=O)NN=C2CCCC2)cc1 | 12.6 µM [falling, partial curve] | –
24 | O=C(N/N=C/C1C(c2ccccc2)C1(Cl)Cl)c1cccc(Cl)c1 (centres undefined) | 25.9 µM [falling, partial curve] | –
25 | O=C(NCC1CCCO1)c1cnn2c1NC(c1ccccc1)CC2C(F)(F)F (centres undefined) | 6.51 µM [rising, single point] | –
26 | C/C(N)=C(/C#N)C(=O)CSc1nnc(-c2ccc(OC(F)F)cc2)o1 | 4.11 µM [falling, single point] | –
27 | CCCN(CCC)CCNC(=O)c1cc(Sc2ccc(Cl)cc2)nc2ccccc12 | 5.62 µM [falling, single point] | –
28 | CC(C)(C)c1csc(SCC(=O)Nc2ccc(Cl)cn2)n1 | 0.82 µM [falling, full curve, poor fit] | –
29 | COC(=O)CCNC(=O)c1nn(Cc2ccccc2)c(=O)c2ccccc12 | 3.98 µM [falling, full curve, poor fit] | –
30 | Cc1noc(C)c1S(=O)(=O)NCCc1csc2nc(-c3ccc(F)cc3)nn12 | 12.6 µM [falling, single point] | 12.6 µM [rising, single point]
31 | Cc1nc2c(-c3ccc(F)cc3)c(C)nn2c(C)c1CCC(=O)N1CCN(c2ccccn2)CC1 | 20 µM [falling, partial curve, poor fit] | –
32 | CCOc1ccccc1CN1CCN(Cc2ccc3cccc(OC)c3n2)CC1CCO (centres undefined) | 35.5 µM [falling, single point] | –
33 | Cc1ccccc1C(=O)N1CCN(C(c2ccccc2)c2ccccc2)CC1 | 10 µM [falling, partial curve, poor fit] | –
34 | O=C(/C=C/c1ccccc1)OCC(=O)c1ccc[nH]1 | 20.6 µM [falling, single point] | –
35 | COc1ccccc1NC1=C(Cl)C(=O)N(C2CCCCC2)C1=O | 1.26 µM [falling, full curve, poor fit] | –
36 | Cc1cc(C)n(-c2nc(NCCCN(C)C)c3c4c(sc3n2)CCCC4)n1 | 0.708 µM [rising, full curve, poor fit] | –
37 | N#CC1(NC(=O)Cn2ncc(Cl)c(Cl)c2=O)CCCCC1 | 5.8 µM [falling, full curve] | 6.51 µM [rising, partial curve, poor fit]
38 | N#Cc1nc(-c2cccs2)oc1NCc1ccccc1Cl | 0.251 µM [falling, partial curve, poor fit] | –
39 | CC(NC(=O)c1ccc(N2CCCC2)c([N+](=O)[O-])c1)c1ccc(S(N)(=O)=O)cc1 (centres undefined) | 22.4 µM [rising, single point] | –
40 | Cc1cc(C)cc(N2CC(C(=O)O)CC2=O)c1 (centres undefined) | 3.66 µM [falling, single point] | –
41 | O=C(C1CC1)N1N=C(c2ccccc2)CC1(O)C(F)(F)C(F)(F)F (centres undefined) | 14.1 µM [rising, partial curve, poor fit] | –

Reference: PubChem BioAssay AID493014 (National Center for Advancing Translational Sciences (NCATS), 2011)
